Measurements reported in PubChem BioAssay AID602196 (INSERM, 2012)
Assay: 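Knock-downs that protect lung cancer cells from cisplatin or sensitise them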. Cell system: human A549 lung cancer cells. Knock-down reagent: siRNA pair against human genes. Time to read-out: 48 h transfection before cisplatin; time from cisplatin to read-out not stated. Treatment: cisplatin at a dose killing half of control-siRNA cells; exact dose and duration not given. Measurement: 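Shift in cisplatin death relative to control siRNA, from -50 (all cells die) to +50 (no cells die); siRNAs harmful on their own scored 0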. Reading the numbers: two-siRNA summed score (-2 to +2): higher = both siRNAs protect from cisplatin killing; -2 means both sensitise; mean protection from cisplatin (shift in death): higher = protection from cisplatin killing. Rule for the call: 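Each siRNA scores 0 if harmful alone by LDH or WST-1, otherwise +1 if it reduces and -1 if it increases cisplatin killing; a gene is active when both siRNAs agree (sum +2 or -2)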. Calls: active = both siRNAs shift cisplatin killing the same way; inactive = no consistent shift, or siRNA harmful alone.
This is a random part of about 23,000 deposited reagents. 455 of them (2%) were called active. 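Active includes both protection and sensitisation; some change values fall well beyond the stated -50 to +50 range.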 Reagents against one gene are numbered here. Further read-outs or replicates are left out here. Reagent sequences are not shown. The record does not give: the amount of reagent.

| target | reagent no. | two-siRNA summed score (-2 to +2) | mean protection from cisplatin (shift in death) (%) | outcome |
| --- | --- | --- | --- | --- |
| ZNF430 | 1 | 0 | 2.6 | inactive |
| ARHGAP19 | 1 | 0 | -5.3 | inactive |
| HMGB1P1 | 1 | 1 | 12.2 | inactive |
| PIF1 | 1 | 0 | 3.4 | inactive |
| ATP6V0D1 | 1 | 0 | -6.2 | inactive |
| GGT2P | 1 | 1 | 9.2 | inactive |
| DNM1P46 | 1 | -1 | -2.7 | inactive |
| TBX3 | 1 | -1 | -3.7 | inactive |
| FUCA2 | 1 | 1 | 3.9 | inactive |
| LOC339281 | 1 | 1 | 19.3 | inactive |
| LOC441007 | 1 | 0 | 3.8 | inactive |
| LOC392267 | 1 | 0 | 5.4 | inactive |
| CSTF2 | 1 | 0 | 3.3 | inactive |
| SENP8 | 1 | 0 | -0.3 | inactive |
| SLC9A4 | 1 | 2 | 19.7 | active |
| DCTN6 | 1 | 1 | 17.4 | inactive |
| PSORS1C2 | 1 | 0 | 28.3 | inactive |
| STRN | 1 | 0 | -3 | inactive |
| LOC343384 | 1 | 0 | 10.9 | inactive |
| ABT1 | 1 | -1 | 0.1 | inactive |
| SLC25A44 | 1 | 0 | -2.2 | inactive |
| CEP41 | 1 | 0 | -5.1 | inactive |
| DHX15 | 1 | 1 | 2 | inactive |
| TSKS | 1 | 0 | 4.4 | inactive |
| LOC285216 | 1 | 1 | 11.8 | inactive |
| GPT | 1 | 0 | 0.9 | inactive |
| NXNL1 | 1 | -1 | -12.1 | inactive |

Sorted by “mean protection from cisplatin (shift in death) (%)” (ascending): some entries from above.
| target | reagent no. | two-siRNA summed score (-2 to +2) | mean protection from cisplatin (shift in death) (%) | outcome |
| --- | --- | --- | --- | --- |
| NXNL1 | 1 | -1 | -12.1 | inactive |
| GPT | 1 | 0 | 0.9 | inactive |
| LOC285216 | 1 | 1 | 11.8 | inactive |

The listing continues:
| target | reagent no. | two-siRNA summed score (-2 to +2) | mean protection from cisplatin (shift in death) (%) | outcome |
| --- | --- | --- | --- | --- |
| LOC442729 | 1 | 0 | 0 | inactive |
| COQ3 | 1 | -1 | -29.4 | inactive |
| KRT39 | 1 | 0 | 15.4 | inactive |
| INHBE | 1 | 0 | 10.4 | inactive |
| RIC1 | 1 | 0 | -7.8 | inactive |
| ADORA3 | 1 | 0 | 8.5 | inactive |
| ADORA3 | 2 | 1 | 10.4 | inactive |
| LOC441552 | 1 | 1 | 11.4 | inactive |
| TERF2IP | 1 | 0 | 0.4 | inactive |
| TSACC | 1 | -1 | -11.2 | inactive |
| SAMD15 | 1 | 0 | 22.1 | inactive |
| MUC4 | 1 | -1 | -14.8 | inactive |
| LOC390637 | 1 | 0 | 7.4 | inactive |
| ZNF596 | 1 | 1 | 1.4 | inactive |
| NPBWR2 | 1 | 1 | 27.1 | inactive |
| TMEM260 | 1 | 0 | 2.2 | inactive |
| PPP4C | 1 | 0 | 0.7 | inactive |
| CD300LD-AS1 | 1 | 0 | -6.3 | inactive |
| HSPA12B | 1 | 0 | -0.7 | inactive |
| CCT7 | 1 | 0 | 9.6 | inactive |
| TLX2 | 1 | 1 | 4.4 | inactive |
| OTX2 | 1 | 0 | -11.2 | inactive |
| NCALD | 1 | 0 | 7.8 | inactive |
| LOC200373 | 1 | 0 | -2.8 | inactive |
| TMEM80 | 1 | 1 | 14.2 | inactive |
| DCAF17 | 1 | 0 | -2.3 | inactive |
| LOC284749 | 1 | 0 | 16.8 | inactive |
| GSX1 | 1 | 0 | 4.7 | inactive |
| KIAA1394 | 1 | 0 | 24.2 | inactive |
| HERC2P2 | 1 | 0 | 3.7 | inactive |
| SPTLC1 | 1 | -1 | -2.1 | inactive |
| ZNF425 | 1 | 0 | 2.2 | inactive |
| NCAPH | 1 | 0 | 12.3 | inactive |
| NPY1R | 1 | 0 | -5.9 | inactive |
| TSPAN5 | 1 | 0 | 3.5 | inactive |
| SCRT2 | 1 | 0 | 11.9 | inactive |
| PPM1J | 1 | -1 | 10.6 | inactive |
| S-I3 | 1 | 0 | 8.1 | inactive |
| DLST | 1 | 0 | 8.5 | inactive |
| LOC390213 | 1 | 1 | 3.3 | inactive |
| EDN1 | 1 | 0 | -12.4 | inactive |
| FLJ90231 | 1 | 0 | 7.2 | inactive |
| NRP1 | 1 | 0 | -4.2 | inactive |
| SLC27A1 | 1 | 1 | 25.2 | inactive |
| USP13 | 1 | 0 | 1.7 | inactive |
| QARS1 | 1 | 0 | 6.1 | inactive |
